These are yes or no findings as the source states them, for the method shown. In cells and extracts the contact can be indirect. Some results given as binding are weak or reduced against the parent protein; the word gives no strength. Sequences can lack the tags named with a protein.

Amino acid sequences for entries named in this document (tags omitted). Residues count along the entry.
UniProt Q9EQY0, residues 21-977: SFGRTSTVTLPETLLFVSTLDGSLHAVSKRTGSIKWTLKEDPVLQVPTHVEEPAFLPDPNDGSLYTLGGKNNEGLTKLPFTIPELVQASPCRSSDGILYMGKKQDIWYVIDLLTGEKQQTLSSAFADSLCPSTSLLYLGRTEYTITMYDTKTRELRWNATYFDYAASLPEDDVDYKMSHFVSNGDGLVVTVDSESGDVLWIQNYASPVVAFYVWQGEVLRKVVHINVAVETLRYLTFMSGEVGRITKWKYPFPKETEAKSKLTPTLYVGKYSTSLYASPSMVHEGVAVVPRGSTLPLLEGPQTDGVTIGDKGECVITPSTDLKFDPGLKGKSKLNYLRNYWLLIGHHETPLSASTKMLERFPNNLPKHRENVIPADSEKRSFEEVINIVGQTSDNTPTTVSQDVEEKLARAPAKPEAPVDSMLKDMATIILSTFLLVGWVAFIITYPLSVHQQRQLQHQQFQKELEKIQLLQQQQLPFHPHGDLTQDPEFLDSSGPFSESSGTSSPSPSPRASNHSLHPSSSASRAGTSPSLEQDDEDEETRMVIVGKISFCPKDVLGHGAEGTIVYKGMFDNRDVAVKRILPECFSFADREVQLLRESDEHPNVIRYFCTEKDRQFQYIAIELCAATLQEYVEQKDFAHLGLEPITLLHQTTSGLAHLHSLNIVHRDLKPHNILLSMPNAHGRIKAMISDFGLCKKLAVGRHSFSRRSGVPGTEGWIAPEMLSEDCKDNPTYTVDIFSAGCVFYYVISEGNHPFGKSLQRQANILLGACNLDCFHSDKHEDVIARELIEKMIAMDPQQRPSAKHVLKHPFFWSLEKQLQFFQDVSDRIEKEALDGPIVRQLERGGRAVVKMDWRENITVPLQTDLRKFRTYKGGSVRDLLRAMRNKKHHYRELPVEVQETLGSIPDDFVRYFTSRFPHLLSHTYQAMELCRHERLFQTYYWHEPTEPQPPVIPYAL

We go through one substance from article PMC6669929.

For this experiment, the target named is T1, GST-fused MITOL N-ter (1–90 aa of MITOL) (UniProt Q9NX47).
T1 sequence: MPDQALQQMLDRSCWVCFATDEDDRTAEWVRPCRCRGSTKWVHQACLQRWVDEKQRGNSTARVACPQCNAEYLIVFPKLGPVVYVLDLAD
As to the kind of experiment: pull-down; purified GST-fusion fragments of MITOL or IRE1α on glutathione magnetic agarose beads incubated with lysates from MEFs, immunoblot (Fig 4C, D); only the target purified. For orientation: Immunoblotting shows a protein as a band on a membrane.

For the substance “IRE1α, endogenous in MEFs and in mouse spinal cord (from UniProt Q9EQY0 21-977)”, the binding result is recorded as “binds”.
